B1: Arch D95N: D95N mutant of Archaerhodopsin 3 without photocurrent, voltage indicator (protein, UniProt P96787 7-258, looked up, variant D95N)
Archaerhodopsin-3: QAGYDLLGDGRPETLWLGIGTLLMLIGTFYFLVRGWGVTDKDAREYYAVTILVPGIASAAYLSMFFGIGLTEVTVGGEMLDIYYARYANWLFTTPLLLLDLALLAKVDRVTIGTLVGVDALMIVTGLIGALSHTAIARYSWWLFSTICMIVVLYFLATSLRSAAKERGPEVASTFNTLTALVLVLWTAYPILWIIGTEGAGVVGLGIETLLFMVLDVTAKVGFGFILLRSRAILGDTEAPEPSAGADVSAAD
B2: Arch 3 WT: Archaerhodopsin 3, light-driven proton pump from Halorubrum sodomense, used as fluorescent voltage indicator (protein)
chain: MDPIALQAGYDLLGDGRPETLWLGIGTLLMLIGTFYFLVRGWGVTDKDAREYYAVTILVPGIASAAYLSMFFGIGLTEVTVGGEMLDIYYARYADWLFTTPLLLLDLALLAKVDRVTIGTLVGVDALMIVTGLIGALSHTAIARYSWWLFSTICMIVVLYFLATSLRSAAKERGPEVASTFNTLTALVLVLWTAYPILWIIGTEGAGVVGLGIETLLFMVLDVTAKVGFGFILLRSRAILGDTEAPEPSAGADVSAAD
modifications: Halorubrum sodomense
notes: Archaerhodopsin 3, light-driven proton pump from Halorubrum sodomense, used as fluorescent voltage indicator

Test system: HEK-293 cells
Assay: Fluorescence versus membrane potential under whole-cell voltage clamp (ramp, step, frequency response, noise)
Type: cell-based, human
Conditions: for Noise in V̂FL (membrane potential estimated from fluorescence): frequencies f ≧ 0.1 Hz in HEK cells; for noise/accuracy of voltage estimated from fluorescence: over timescales <12 s
Experimental: Fluorescence of Arch 3 in HEK 293 cells was readily imaged in an inverted fluorescence microscope with red illumination (λ=640 nm, I=540 W/cm^2), a high numerical aperture objective, a Cy5 filter set, and an EMCCD camera. […] Cells not expressing Arch were not fluorescent.
HEK-293 cells were grown at 37° C., 5% CO2, in DMEM supplemented with 10% FBS and penicillin-streptomycin. Plasmids were transfected using LIPOFECTAMINE™ and PLUS reagent (Invitrogen) following the manufacturer's instructions, and assayed between 48-72 hours later. The day before recording, cells were re-plated onto glass-bottom dishes (MatTek) at a density of ˜5000 cells/cm^2.
The concentration of endogenous retinal in the HEK cells was not known, so the cells were supplemented with retinal by diluting stock retinal solutions (40 mM, DMSO) in growth medium to a final concentration of 5 μM, and then placing the cells back in the incubator for 1-3 hours. All imaging and electrophysiology were performed in Tyrode's buffer (containing, in mM: 125 NaCl, 2 KCl, 3 CaCl2, 1 MgCl2, 10 HEPES, 30 glucose pH 7.3, and adjusted to 305-310 mOsm with sucrose). Only HEK cells having reversal potentials between −10 and −40 mV were included in the analysis.
Simultaneous fluorescence and whole-cell patch clamp recordings were acquired on a home-built, inverted epifluorescence microscope at room temperature. A diode laser operating at 100 mW, 640 nm (CrystaLaser, DL638-100-O) provided wide-field illumination at an intensity typically between 500-2000 W/cm^2. To minimize background signal from out-of-focus debris, illumination was often performed in through-the-objective total internal reflection fluorescence (TIRF) mode. Fluorescence emission was collected using a 60×, 1.45 NA oil immersion objective (Olympus), and separated from scattered excitation using a 660-760 nm bandpass emission filter (Chroma). For fast imaging of dynamic fluorescence responses and action potentials, images were acquired on an Andor iXon^+ 860 camera operating at up to 2,000 frames/s (using a small region of interest and pixel binning). Slower images with higher spatial resolution were acquired on an Andor iXon^+ 897 EMCCD. Custom software written in LabView (National Instruments) was used to synchronize illumination, collection of images, recording of membrane potential and cell current, and application of electrical stimuli to the cell.
Filamented glass micropipettes (WPI) were pulled to a tip resistance of 3-10 MΩ, fire polished, and filled with internal solution (containing, in mM: 125 Potassium gluconate, 8 NaCl, 0.6 MgCl2, 0.1 CaCl2, 1 EGTA, 10 HEPES, 4 Mg-ATP, 0.4 Na-GTP, pH 7.3; adjusted to 295 mOsm with sucrose). The micropipettes were positioned with a Burleigh PCS 5000 micromanipulator. Whole-cell, voltage clamp recordings were acquired using an AxoPatch 200B amplifier (Molecular Devices), filtered at 2 kHz with the internal Bessel filter, and digitized with a National Instruments PCIE-6323 acquisition board at 10 kHz. Ambient 60 Hz noise was removed using a HumBug Noise Eliminator (AutoMate Scientific). For experiments requiring rapid modulation of transmembrane potential, series resistance and whole-cell capacitance were predicted to 95% and corrected to ˜50%. Electrical stimuli were generated using the PCIE-6323 acquisition board and sent to the AXOPATCH™, which then applied these signals in either constant current or constant voltage mode.
To measure fluorescence as a function of membrane potential, a triangle wave was applied, with amplitude from −150 mV to +150 mV and period 12 s, with video recording at 100 ms per frame. A pixel weight matrix was calculated according to Eq. S2 and applied to the movie images to generate a fluorescence number for each frame. These fluorescence values were divided by their minimum value (at V=−150 mV). The result is plotted as a function of Vin FIGS. 7 and 8. […]

| Molecule | Noise in V̂FL (membrane potential estimated from fluorescence) [μV/Hz^1/2] | noise/accuracy of voltage estimated from fluorescence | share of step response in the fast component (step response) [%] | shot-noise limited noise floor in V̂FL (voltage clamp at constant V=0 mV, frequencies above 10 Hz) |
| --- | --- | --- | --- | --- |
| B1 | 260 | 260 μV/(Hz)^1/2 | 20 | – |
| B2 | 625 | 625 μV/(Hz)^1/2 | – | 470 μV/(Hz) ½ |

From US9057734B2, “Optogenetic probes for measuring membrane potential” (President and Fellows of Harvard College, priority 2010, dated 2015)
